Laboratory results taken from patent US9511053B2, “Nitric oxide scavengers” (Baxter International Inc., priority 2004, dated 2016).
For at least one compound, name, drawing or mass did not settle the structure.

Experiment: NO scavenger assessment: direct measurement of nitric oxide with NO-selective microelectrode
Assay type: biochemical
Conditions: anaerobic, room temperature, phosphate buffer 50 mM pH 7.4
Description: The nitric oxide (NO) scavenging activity of various compounds was determined by the direct measurement of nitric oxide. Using a NO-selective microelectrode (World Precision Instruments, ISO-NO Mark II) the nitric oxide concentration was monitored upon the addition of the test compound. The reaction rate constant was calculated for each compound. Test compounds were added in molar excess, and therefore pseudo first-order reaction kinetics were observed. The rate constant (ln ks) for each compound was calculated. Reactions were performed under anaerobic conditions at room temperature, in phosphate buffer (50 mM, pH 7.4).

SMILES: Oc1ccc(-c2[o+]c3cc(O)cc(O)c3cc2O)cc1 [Pelargonidin, pelargonidin]
- Rate of NO Scavenging, ln ks (Molar ratio scavenger to NO 40:1): 1.5
- Rate of NO Scavenging, ln ks (Molar ratio scavenger to NO 66:1): 1.7
- Rate of NO Scavenging, ln ks (Molar ratio scavenger to NO 370:1): 2.0
- Rate of NO Scavenging, ln ks (Molar ratio scavenger to NO 871:1): 2.5
